Some of the results follow.
Tests used:
Assay in all cases: log2 fold change, soluble protein after heating vs DMSO (PISA); higher = thermal stabilisation; K562 lysate, 10 uM; active = over 0.2 and 3.5 SD of the protein, either way, in both replicates (recomputed)
[1] = compound: NCC(=O)Nc1ccc(-n2nc(C(F)(F)F)cc2-c2ccc3c(ccc4ccccc43)c2)cc1
Outline: (§1)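 A 30 min treatment with 10 μM compound was applied to crude K562 extract at 1 mg/mL protein in PBS pH 7.4 with 1 mM MgCl2. Heating for 3 min spanned 48°C-58°C, after which aliquots were pooled, adjusted to 0.5% NP-40 at 4°C and spun at 21,000xg for 90 min. TMTpro 16plex LC-MS/MS of the supernatant, with channel sums equalised, gave values recorded as log-two fold change in thermal stability against solvent controls, from duplicates.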

Amino acid sequences for entries named in this document (tags omitted). A change or cut given only in a name is not applied to a line headed by its entry.
UniProt O75083: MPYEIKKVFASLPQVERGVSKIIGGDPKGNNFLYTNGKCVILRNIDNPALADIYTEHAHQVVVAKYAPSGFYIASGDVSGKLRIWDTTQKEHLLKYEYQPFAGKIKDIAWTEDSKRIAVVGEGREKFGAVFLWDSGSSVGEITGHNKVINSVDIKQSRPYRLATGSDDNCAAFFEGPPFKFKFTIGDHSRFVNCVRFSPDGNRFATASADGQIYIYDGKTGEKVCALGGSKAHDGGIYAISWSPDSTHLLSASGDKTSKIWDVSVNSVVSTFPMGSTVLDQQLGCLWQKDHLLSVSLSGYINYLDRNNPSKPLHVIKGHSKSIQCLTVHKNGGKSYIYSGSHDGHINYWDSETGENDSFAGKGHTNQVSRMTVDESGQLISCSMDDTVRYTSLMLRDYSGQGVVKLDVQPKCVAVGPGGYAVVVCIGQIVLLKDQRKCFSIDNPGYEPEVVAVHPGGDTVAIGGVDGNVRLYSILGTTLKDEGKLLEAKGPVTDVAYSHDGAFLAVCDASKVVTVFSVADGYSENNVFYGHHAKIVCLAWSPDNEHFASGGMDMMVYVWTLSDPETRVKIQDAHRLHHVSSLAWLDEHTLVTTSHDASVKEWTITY
UniProt Q9NP79: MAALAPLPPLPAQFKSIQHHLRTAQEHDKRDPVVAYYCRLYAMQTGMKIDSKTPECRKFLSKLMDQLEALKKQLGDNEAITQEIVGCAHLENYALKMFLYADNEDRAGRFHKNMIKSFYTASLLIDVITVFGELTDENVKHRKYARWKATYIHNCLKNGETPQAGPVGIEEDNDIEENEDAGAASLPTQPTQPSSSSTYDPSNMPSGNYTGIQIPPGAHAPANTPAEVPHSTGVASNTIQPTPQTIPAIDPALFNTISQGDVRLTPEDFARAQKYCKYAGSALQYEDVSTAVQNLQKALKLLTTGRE
UniProt Q969T9: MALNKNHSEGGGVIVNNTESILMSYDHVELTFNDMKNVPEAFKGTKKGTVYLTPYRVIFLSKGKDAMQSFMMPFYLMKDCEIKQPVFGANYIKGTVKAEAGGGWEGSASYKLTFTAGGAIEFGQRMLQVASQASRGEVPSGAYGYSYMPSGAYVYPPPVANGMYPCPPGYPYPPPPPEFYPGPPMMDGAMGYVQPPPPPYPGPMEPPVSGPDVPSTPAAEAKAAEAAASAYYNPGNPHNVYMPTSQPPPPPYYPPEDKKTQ
UniProt Q9H7M9, whole entry, looked up: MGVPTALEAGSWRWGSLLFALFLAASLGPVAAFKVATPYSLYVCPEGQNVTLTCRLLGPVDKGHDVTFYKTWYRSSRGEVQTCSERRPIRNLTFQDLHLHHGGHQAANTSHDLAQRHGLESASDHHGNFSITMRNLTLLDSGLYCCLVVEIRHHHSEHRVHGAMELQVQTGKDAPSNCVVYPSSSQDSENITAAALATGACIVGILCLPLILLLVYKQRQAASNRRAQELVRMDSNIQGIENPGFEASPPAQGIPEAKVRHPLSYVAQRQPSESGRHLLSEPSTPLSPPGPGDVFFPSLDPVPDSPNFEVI
UniProt Q8TBY9: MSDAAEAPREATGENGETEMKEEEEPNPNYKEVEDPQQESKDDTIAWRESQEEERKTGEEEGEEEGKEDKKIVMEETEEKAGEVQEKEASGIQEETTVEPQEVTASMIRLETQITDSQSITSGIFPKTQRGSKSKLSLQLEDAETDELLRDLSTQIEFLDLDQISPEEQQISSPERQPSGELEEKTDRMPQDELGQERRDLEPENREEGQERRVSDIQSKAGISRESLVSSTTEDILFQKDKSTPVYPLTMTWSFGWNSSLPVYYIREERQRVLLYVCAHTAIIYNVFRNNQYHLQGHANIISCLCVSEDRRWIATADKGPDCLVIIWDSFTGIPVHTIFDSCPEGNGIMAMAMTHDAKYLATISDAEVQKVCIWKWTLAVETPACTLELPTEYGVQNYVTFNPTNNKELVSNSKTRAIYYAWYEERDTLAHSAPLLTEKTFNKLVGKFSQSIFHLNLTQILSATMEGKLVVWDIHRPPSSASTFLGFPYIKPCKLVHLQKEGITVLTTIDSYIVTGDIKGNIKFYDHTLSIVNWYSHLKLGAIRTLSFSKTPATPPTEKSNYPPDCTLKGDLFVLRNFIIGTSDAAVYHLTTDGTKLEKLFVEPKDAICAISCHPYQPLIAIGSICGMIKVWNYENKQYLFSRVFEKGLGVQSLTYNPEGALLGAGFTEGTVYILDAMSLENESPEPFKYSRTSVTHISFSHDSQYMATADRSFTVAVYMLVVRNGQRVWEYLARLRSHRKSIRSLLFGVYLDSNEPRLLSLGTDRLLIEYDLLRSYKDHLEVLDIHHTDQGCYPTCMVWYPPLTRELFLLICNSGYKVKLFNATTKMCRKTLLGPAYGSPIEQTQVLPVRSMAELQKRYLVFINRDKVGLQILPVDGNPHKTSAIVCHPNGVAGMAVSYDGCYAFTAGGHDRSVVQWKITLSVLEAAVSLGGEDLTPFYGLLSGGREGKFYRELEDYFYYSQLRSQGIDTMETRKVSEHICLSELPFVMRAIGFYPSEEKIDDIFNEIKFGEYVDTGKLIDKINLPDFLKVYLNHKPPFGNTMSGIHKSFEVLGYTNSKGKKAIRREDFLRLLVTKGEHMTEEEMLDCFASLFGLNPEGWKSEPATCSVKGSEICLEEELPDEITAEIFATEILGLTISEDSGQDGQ
UniProt Q9HCS7: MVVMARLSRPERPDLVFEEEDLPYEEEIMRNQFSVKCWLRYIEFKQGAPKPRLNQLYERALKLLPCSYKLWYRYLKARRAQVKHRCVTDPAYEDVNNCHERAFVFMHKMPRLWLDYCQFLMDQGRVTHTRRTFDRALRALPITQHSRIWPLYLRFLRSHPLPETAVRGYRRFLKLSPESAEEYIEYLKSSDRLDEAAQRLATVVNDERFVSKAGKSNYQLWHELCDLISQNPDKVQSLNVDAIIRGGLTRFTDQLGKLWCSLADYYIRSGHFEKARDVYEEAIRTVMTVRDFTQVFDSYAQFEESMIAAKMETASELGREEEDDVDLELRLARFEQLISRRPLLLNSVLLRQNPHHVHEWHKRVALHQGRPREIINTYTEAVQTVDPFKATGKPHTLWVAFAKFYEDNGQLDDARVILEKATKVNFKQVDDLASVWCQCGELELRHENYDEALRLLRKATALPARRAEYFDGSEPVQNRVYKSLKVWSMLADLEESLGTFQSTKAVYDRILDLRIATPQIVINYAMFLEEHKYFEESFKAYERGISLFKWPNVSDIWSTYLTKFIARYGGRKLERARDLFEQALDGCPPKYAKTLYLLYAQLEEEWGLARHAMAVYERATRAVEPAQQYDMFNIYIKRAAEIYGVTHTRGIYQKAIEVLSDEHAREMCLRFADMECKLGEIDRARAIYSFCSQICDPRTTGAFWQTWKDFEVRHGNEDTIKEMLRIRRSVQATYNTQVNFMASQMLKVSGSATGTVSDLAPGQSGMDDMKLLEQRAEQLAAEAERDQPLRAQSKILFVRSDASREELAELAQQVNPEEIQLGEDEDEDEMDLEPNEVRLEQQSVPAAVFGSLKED
UniProt Q96JC1: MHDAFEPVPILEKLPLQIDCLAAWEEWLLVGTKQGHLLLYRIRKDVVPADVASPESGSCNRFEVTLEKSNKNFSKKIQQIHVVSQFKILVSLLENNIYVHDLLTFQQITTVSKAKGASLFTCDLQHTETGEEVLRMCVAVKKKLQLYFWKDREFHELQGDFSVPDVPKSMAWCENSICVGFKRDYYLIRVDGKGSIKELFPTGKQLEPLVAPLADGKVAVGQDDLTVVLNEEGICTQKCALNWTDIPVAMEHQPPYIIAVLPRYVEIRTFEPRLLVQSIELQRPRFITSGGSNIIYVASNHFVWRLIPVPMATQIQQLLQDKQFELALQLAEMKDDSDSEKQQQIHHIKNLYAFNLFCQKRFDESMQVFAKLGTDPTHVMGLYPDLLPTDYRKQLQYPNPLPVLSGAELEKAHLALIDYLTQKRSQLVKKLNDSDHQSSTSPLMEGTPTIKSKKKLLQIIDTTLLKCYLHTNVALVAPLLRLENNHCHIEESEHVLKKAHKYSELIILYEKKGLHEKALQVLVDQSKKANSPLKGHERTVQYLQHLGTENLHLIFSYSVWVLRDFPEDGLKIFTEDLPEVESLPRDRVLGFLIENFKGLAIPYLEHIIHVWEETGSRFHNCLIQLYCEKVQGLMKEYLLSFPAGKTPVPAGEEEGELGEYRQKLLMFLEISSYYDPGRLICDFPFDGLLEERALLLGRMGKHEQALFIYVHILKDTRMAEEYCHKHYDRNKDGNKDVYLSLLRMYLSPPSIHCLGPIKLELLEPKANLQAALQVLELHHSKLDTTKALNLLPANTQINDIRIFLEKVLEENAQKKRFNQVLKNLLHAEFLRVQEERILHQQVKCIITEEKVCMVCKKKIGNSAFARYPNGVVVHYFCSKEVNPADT
UniProt Q9C0J8: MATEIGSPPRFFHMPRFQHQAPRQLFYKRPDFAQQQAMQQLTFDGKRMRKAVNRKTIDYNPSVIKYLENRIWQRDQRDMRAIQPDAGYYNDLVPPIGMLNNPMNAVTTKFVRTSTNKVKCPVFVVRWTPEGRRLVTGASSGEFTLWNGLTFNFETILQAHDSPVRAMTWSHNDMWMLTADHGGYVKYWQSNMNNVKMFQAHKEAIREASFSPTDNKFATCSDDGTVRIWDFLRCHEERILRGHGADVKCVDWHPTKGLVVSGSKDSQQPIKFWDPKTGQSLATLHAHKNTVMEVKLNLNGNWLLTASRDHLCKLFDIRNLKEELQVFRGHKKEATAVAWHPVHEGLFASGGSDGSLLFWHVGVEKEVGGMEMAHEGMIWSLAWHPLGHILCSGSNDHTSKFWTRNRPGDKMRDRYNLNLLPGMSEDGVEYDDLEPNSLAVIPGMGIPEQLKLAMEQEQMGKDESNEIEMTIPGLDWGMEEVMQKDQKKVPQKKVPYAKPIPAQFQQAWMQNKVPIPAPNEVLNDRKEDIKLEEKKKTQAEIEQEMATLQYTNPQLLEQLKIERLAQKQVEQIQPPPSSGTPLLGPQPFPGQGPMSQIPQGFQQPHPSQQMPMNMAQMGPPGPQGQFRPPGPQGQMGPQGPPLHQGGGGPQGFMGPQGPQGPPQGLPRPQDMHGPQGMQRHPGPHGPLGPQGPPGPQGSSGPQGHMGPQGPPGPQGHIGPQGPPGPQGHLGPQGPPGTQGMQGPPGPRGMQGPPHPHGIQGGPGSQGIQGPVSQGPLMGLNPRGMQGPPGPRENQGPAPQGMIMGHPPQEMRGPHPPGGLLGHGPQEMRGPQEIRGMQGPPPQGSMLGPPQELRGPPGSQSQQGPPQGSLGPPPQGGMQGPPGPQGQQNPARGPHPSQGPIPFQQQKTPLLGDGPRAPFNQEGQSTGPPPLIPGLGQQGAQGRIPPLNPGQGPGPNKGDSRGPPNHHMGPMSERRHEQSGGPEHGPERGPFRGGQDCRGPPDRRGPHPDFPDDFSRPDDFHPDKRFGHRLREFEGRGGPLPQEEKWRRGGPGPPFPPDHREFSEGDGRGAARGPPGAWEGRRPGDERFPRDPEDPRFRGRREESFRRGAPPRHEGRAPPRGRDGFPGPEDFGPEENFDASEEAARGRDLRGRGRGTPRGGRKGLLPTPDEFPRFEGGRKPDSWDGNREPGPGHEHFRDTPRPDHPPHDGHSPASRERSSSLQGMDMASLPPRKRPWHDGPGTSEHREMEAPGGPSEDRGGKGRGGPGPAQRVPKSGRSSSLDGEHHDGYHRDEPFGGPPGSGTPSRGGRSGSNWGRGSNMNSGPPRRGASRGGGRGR
UniProt Q9H6Y2: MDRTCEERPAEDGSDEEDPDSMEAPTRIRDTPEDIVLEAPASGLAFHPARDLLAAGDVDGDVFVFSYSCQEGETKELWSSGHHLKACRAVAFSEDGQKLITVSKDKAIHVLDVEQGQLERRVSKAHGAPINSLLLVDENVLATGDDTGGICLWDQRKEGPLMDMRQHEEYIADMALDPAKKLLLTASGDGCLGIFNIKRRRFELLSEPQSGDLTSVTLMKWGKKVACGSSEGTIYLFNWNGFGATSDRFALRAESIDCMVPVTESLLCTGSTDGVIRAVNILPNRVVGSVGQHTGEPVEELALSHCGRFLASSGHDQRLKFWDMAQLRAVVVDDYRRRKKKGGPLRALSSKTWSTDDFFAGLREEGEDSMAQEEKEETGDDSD
UniProt Q9BRX9: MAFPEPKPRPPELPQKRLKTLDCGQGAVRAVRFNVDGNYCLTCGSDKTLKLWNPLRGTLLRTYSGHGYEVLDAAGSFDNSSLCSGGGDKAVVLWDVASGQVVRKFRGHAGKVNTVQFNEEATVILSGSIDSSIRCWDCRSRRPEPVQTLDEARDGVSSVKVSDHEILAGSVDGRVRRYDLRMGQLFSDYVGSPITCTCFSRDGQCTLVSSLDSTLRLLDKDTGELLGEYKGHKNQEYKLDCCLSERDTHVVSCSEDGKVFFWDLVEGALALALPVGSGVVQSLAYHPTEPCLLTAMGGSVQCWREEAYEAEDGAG

vorinostat = compound: O=C(CCCCCCC(=O)Nc1ccccc1)NO [vorinostat]
Outline: as §1

silmitasertib = compound: O=C(O)c1ccc2c(c1)nc(Nc1cccc(Cl)c1)c1ccncc12 [silmitasertib]
Outline: as §1

[2] = compound: O=C1NC(=O)C(c2cnc3ccccn23)=C1c1cn2c3c(cc(F)cc13)CN(C(=O)N1CCCCC1)CC2
Outline: as §1

entospletinib = compound: c1cn2cc(-c3ccc4cn[nH]c4c3)nc(Nc3ccc(N4CCOCC4)cc3)c2n1 [entospletinib]
Outline: as §1

Target	log2 fold change [1]	log2 fold change (vorinostat)	log2 fold change (silmitasertib)	log2 fold change [2]	log2 fold change (entospletinib)
WDR1 (UniProt O75083)	inactive: -0.014	inactive: 0.046	inactive: -0.001	inactive: 0	inactive: 0.015
VTA1 (UniProt Q9NP79)	inactive: -0.04	inactive: 0.083	inactive: -0.025	inactive: -0.047	inactive: -0.031
WBP2 (UniProt Q969T9)	inactive: -0.004	inactive: 0.136	inactive: -0.017	inactive: 0.021	inactive: 0.05
WDFY1 (UniProt Q8IWB7)	inactive: -0.008	inactive: 0.007	inactive: -0.009	inactive: -0.008	inactive: 0.004
VSIR (UniProt Q9H7M9)	inactive: -0.03	inactive: 0.115	inactive: -0.038	inactive: -0.194	inactive: 0.028
WARS2 (UniProt Q9UGM6)	inactive: -0.017	inactive: 0.079	inactive: -0.01	inactive: 0.011	inactive: 0.023
WDR34 (UniProt Q96EX3)	inactive: 0.056	inactive: -0.044	inactive: -0.024	inactive: 0.045	inactive: 0.122
VKORC1L1, A0A3B3ISV4	inactive: 0.001	inactive: -0.014	inactive: 0	inactive: 0.015	inactive: 0.058
WDR66 (UniProt Q8TBY9)	inactive: 0.069	–	–	–	–
XAB2 (UniProt Q9HCS7)	inactive: -0.012	active: -0.259	inactive: 0.005	inactive: -0.023	inactive: -0.006
VPS39 (UniProt Q96JC1)	inactive: 0.009	inactive: -0.194	inactive: 0.01	inactive: -0.005	inactive: 0.013
WASF2 (UniProt Q9Y6W5)	inactive: 0.002	inactive: 0.062	inactive: -0.013	inactive: -0.022	inactive: -0.004
WDR33 (UniProt Q9C0J8)	inactive: -0.002	inactive: -0.015	inactive: -0.019	inactive: 0.011	inactive: -0.08
VWDE (UniProt Q8N2E2)	inactive: -0.014	inactive: -0.023	inactive: -0.011	inactive: 0.002	inactive: -0.072
WDR62 isoform 4 (UniProt O43379)	inactive: 0.045	active: -0.423	inactive: 0.01	inactive: -0.014	inactive: -0.016
VPS18 (UniProt Q9P253)	inactive: -0.016	active: -0.386	inactive: 0.04	inactive: 0.015	inactive: -0.006
WDR13, A0A087X091	inactive: 0.028	–	–	–	–
WASHC3 (UniProt Q9Y3C0)	inactive: 0.011	inactive: 0.046	inactive: -0.07	inactive: -0.025	inactive: -0.039
WDR46, A0A0G2JJL1	inactive: 0.154	–	–	–	–
WDR89 (UniProt Q96FK6)	inactive: 0.071	inactive: -0.03	inactive: 0.024	inactive: 0.011	inactive: 0.031
WDR55 (UniProt Q9H6Y2)	inactive: 0.011	inactive: -0.078	inactive: 0.02	inactive: -0.009	inactive: 0.014
WIZ isoform 3 (UniProt O95785)	inactive: 0.015	inactive: -0.056	inactive: -0.029	inactive: 0.007	inactive: -0.009
WASF1 (UniProt Q92558)	inactive: 0.044	inactive: 0.037	inactive: -0.006	inactive: 0.032	inactive: 0.016
VPS26A (UniProt O75436)	inactive: 0.007	inactive: 0.044	inactive: 0.001	inactive: -0.013	inactive: 0.029
VPS13A (UniProt Q96RL7)	inactive: -0.001	inactive: 0.203	inactive: -0.019	inactive: -0.031	inactive: -0.085
VPS52 (UniProt Q8N1B4)	inactive: -0.054	inactive: -0.117	inactive: 0.07	inactive: 0.036	inactive: -0.002
WDR83 (UniProt Q9BRX9)	inactive: 0.242	–	–	–	–

In another format: entries from further up
VSIR (UniProt Q9H7M9)
  log2 fold change [1]: inactive: -0.03
  log2 fold change (vorinostat): inactive: 0.115
  log2 fold change (silmitasertib): inactive: -0.038
  log2 fold change [2]: inactive: -0.194
  log2 fold change (entospletinib): inactive: 0.028
WDR46, A0A0G2JJL1
  log2 fold change [1]: inactive: 0.154

From the supplement of paper PMC10849652
